## Library screening results

Data taken from ChEMBL document CHEMBL3988442, “University of Dundee, Small-Polar-MMV Screening Library” (2021).

The filed quantity is “Percent Effect” (%).
The controls that fix the scale are not given in the record; negative values are as filed.
Compounds were drawn at random from those tested, without regard to their results.

Mtb growth Cornell: 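Whole-cell assay for inhibitors of Mycobacterium tuberculosis growth, labelled Cornell in the record; the read-out is not stated. The concentration is filed as 10 mM, unlikely as a test dose, so the dose is not known. The record gives no direction; compounds strong in two other growth screens of this library score well above the rest, so higher reads as stronger inhibition. Of about 53,000 compounds tested this way, about 900 (1.7%) reached 50% or more in at least one test.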
Mtb heat-shock: 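Assay on Mycobacterium tuberculosis, filed only as a heat shock assay from Cornell; the read-out is not stated. The concentration is filed as 10 mM, unlikely as a test dose, so the dose is not known. The record gives no direction; compounds that gave an IC50 in retests scored well above the rest, so higher reads as stronger inhibition. Of about 69,000 compounds tested this way, about 930 (1.4%) reached 50% or more in at least one test.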

Clc1cccc(C(NCc2ncc[nH]2)c2ccccn2)c1 (configuration not stated) read Mtb heat-shock: 17.49%. Cc1cc(C(O)CCNC(=O)COc2ccccc2F)c(C)o1 (configuration not stated) gave Mtb growth Cornell: 31.4%; Mtb heat-shock: 28.31%. Cc1nc(C2CN(C)CCO2)cc(N2CCC(CO)CC2)n1 (configuration not stated) read Mtb growth Cornell: -9.287%; Mtb heat-shock: -8.348%. For COc1c[nH]c(C(=O)N2CCN(c3ccc(Cl)cc3)CC2)cc1=O the result was Mtb growth Cornell: -3.243%; Mtb heat-shock: -24.92%. Cc1ccc(O)c(-c2cc(NCCO)nc3[nH]ccc23)c1 gave Mtb growth Cornell: 1.179%; Mtb heat-shock: 12.31%. Cc1cc(CN(C)Cc2ncc(-c3ccccc3)o2)no1 gave Mtb growth Cornell: 13.42%; Mtb heat-shock: 19.37%.

Cc1cnn(CC2CN(Cc3ccc(C(N)=O)cc3)CCO2)c1 (configuration not stated) gave Mtb growth Cornell: -44.24%; Mtb heat-shock: -18.72%. With Cc1n[nH]c(C)c1CNC(=O)N1CCCC(Cc2nccn2C)C1 (configuration not stated) the screen gave Mtb growth Cornell: 6.289%; Mtb heat-shock: -0.485%. [H][C@]12CC[C@]([H])(CN(Cc3ccccc3)C1)N(C(=O)CCCN(C)C)C2 read Mtb heat-shock: -41.53%. Cc1csc(N2CCN(Cc3cnc(C)s3)CC2C)n1 (configuration not stated) gave Mtb growth Cornell: 10.12%; Mtb heat-shock: -8.154%. Result for Cc1nc(-c2ccsc2)ccc1C(=O)NC(C)CN1CCOCC1 (configuration not stated) was Mtb heat-shock: -22.12%. For COc1cc(C)ccc1OCCC(=O)N1CCCC(n2cncn2)C1 (configuration not stated) the result was Mtb growth Cornell: 8.93%; Mtb heat-shock: 8.042%.

With [H][C@]12CC[C@]([H])(CN(C3Cc4ccccc4C3)C1)N(C(=O)c1ccc[nH]1)C2 the screen gave Mtb growth Cornell: -7.607%; Mtb heat-shock: -2.874%. With Cc1nc(C)n(CC2CCCN2Cc2cnc(C)s2)n1 (configuration not stated) the screen gave Mtb growth Cornell: 8.323%; Mtb heat-shock: 26.97%. CC(C(=O)N1CCc2sccc2C1)N1CCCN(C2CC2)CC1 (configuration not stated) gave Mtb growth Cornell: 2.142%; Mtb heat-shock: 0.08321%. COC(=O)c1cccc(C(=O)N(C)Cc2ccsc2)c1 gave Mtb growth Cornell: -12.78%; Mtb heat-shock: -21.27%. Result for CCN1CC(C(=O)NCCn2cccc2)CCC1=O (configuration not stated) was Mtb growth Cornell: -8.702%; Mtb heat-shock: -23.78%. For Cc1cc(C(=O)N2Cc3ccccc3OC3(CCOCC3)C2)nc(N)n1 the result was Mtb growth Cornell: 4.193%; Mtb heat-shock: -0.7505%.

With CN(C)CCNCC1CCOC(C)(C)C1 (configuration not stated) the screen gave Mtb heat-shock: -26.19%. For O=C1CNc2ncnc(N3CCN(Cc4cccc(F)c4)CC3)c2N1 the result was Mtb growth Cornell: -20.31%; Mtb heat-shock: -5.432%. With CCc1noc(C)c1C(=O)N1CCCC(n2nc(C)nc2C)C1 (configuration not stated) the screen gave Mtb heat-shock: -3.797%. For O=C(NCCCN1CCOCC1)c1ccn(-c2ccc3ccccn23)n1.O=C(O)C(F)(F)F the result was Mtb growth Cornell: -11.9%; Mtb heat-shock: -33.89%. With COc1ncccc1CNc1cc(N2CCCC2CO)ncn1 (configuration not stated) the screen gave Mtb growth Cornell: 7.313%; Mtb heat-shock: -7.074%. Cc1cccc(-c2noc(Cn3nc(C(N)=O)ccc3=O)n2)c1 gave Mtb growth Cornell: -11%; Mtb heat-shock: 7.381%.

For CC(NC(=O)NCc1ccccc1F)(C(=O)O)c1ccco1 (configuration not stated) the result was Mtb growth Cornell: -0.26%; Mtb heat-shock: 0.01213%.